Measurements from paper PMC4295397.
Results are given in words; binding and its absence hold for the method and conditions named. Binding seen in cells or lysates may run through a third protein. Some entries that bind do so weakly or less than the wild type. Blank lines part the entries; values can stand above or below the molecule they belong to.

Chains of the proteins cited; added tags and fusions are not shown.
UniProt Q9P287: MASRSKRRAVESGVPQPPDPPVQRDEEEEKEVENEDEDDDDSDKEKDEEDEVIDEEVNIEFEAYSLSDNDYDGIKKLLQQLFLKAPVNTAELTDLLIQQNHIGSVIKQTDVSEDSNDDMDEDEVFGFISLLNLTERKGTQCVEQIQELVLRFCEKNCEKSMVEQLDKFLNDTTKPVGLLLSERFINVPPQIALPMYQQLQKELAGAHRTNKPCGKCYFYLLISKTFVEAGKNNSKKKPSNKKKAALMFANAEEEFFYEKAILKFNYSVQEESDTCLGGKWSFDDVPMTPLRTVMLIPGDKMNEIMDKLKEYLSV
UniProt Q96AE4: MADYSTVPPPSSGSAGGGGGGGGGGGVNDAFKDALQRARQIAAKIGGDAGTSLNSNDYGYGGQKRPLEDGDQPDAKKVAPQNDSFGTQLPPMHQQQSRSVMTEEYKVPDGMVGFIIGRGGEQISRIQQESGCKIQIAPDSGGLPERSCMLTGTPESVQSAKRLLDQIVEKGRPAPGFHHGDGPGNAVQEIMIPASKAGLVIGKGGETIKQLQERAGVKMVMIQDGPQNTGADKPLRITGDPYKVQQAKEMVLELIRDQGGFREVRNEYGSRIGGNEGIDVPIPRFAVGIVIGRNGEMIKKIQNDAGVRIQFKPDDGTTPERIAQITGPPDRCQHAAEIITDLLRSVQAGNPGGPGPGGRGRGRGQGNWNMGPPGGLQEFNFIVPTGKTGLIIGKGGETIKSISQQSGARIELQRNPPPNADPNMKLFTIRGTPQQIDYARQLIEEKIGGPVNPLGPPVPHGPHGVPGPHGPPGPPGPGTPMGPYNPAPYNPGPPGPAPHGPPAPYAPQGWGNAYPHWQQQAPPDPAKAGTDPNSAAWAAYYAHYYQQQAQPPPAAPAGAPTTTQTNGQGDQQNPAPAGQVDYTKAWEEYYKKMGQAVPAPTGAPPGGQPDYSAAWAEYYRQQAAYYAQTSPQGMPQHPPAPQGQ

Assays:
[1] = target: BCCIP (brca2 and cdkn1a interacting protein), endogenous in Huh7 cells (human (endogenous in Huh7)) (UniProt Q9P287); test: co-IP; endogenous proteins of Huh7 cell lysate (50 mM Tris-HCl pH 7.4, 150 mM NaCl, 1% Triton X-100), treated with benzonase; IP with anti-FBP1 or anti-BCCIP antibody, protein A/G Plus agarose, 4°C; Western blot
[2] = target: FUSE binding protein1 (FBP1), endogenous in Huh7 cells (human (endogenous in Huh7)) (UniProt Q96AE4); test: as above

binding [1]: binds
Molecule: FUSE binding protein1 (FBP1), endogenous in Huh7 cells (from UniProt Q96AE4 1-644)

binding [2]: binds
B1: translationally controlled tumor protein (TCTP), endogenous in Huh7 cells (protein, UniProt P13693 1-172)
chain: MIIYRDLISHDEMFSDIYKIREIADGLCLEVEGKMVSRTEGNIDDSLIGGNASAEGPEGEGTESTVITGVDIVMNHHLQETSFTKEAYKKYIKDYMKSIKGKLEEQRPERVKPFMTGAAEQIKHILANFKNYQFFIGENMNPDGMVALLDYREDGVTPYMIFFKDGLEMEKC
